PubChem BioAssay AID1963867 (Molecular Pharmacology Branch, DTP, NCI, 2024)
“And” between values parts separate entries of the source, which are not always exact repeats. Identical values can stand only once. Further values from the same series stand in other lists.

Test system: KRAS-mutant PDC tumor spheroid with HUVEC/MSC, viability
Assay: Anticancer human tumor 327498-153-R-J2-PDC patient-derived uterine carcinosarcoma cell line growth inhibition [KRAS2]
Conditions: stronger effect = lower value; active = viability on the fitted dose curve at most 10% of control; inactive = the rest
Text: Multicellular complex tumor spheroid response to RAS pathway inhibitors in combination with a targeted agents in patient-derived cell lines with oncogenic KRAS variants from multiple cancer types
A high-throughput screen of multi-cell type tumor spheroids was designed to identify active combinations of targeted small molecules and KRAS pathway inhibitors. Complex spheroids include a stromal component modeled by human endothelial cells (HUVEC) and fibroblasts modeled by human mesenchymal stem cells (MSCs). The concentration ranges selected for each drug and investigational agent were based upon clinically achievable concentrations if the clinical Cmax of the agent was known.
Compounds. The drugs and investigational agents: BI-3406 (NSC825286), BAY-293 (NSC824723), batoprotafib (TNO155; NSC825523), sotorasib (AMG 510; NSC818433), MRTX1257 (NSC819558), elimusertib (BAY 1895344; NSC800525), molibresib (GSK525762; NSC774829), temuterkib (LY3214996; NSC803410), venetoclax (NSC766270), alisertib (NSC759677), olaparib (NSC753686), talazoparib (NSC767125), erdafitinib (NSC781556), ipatasertib (NSC767898), cabozantinib (NSC761068), nintedanib (NSC756659), abemaciclib (NSC768073), docetaxel (NSC628503), trametinib (NSC758246), and sapanisertib (NSC764658) were obtained from the National Cancer Institute (NCI) Developmental Therapeutics Program Chemical Repository. The FDA-approved anticancer drug set is available from the Developmental Therapeutics Program. […] The stock solutions were prepared in dimethyl sulfoxide (DMSO, Sigma-Aldrich, St. Louis, MO, cat. D2650) at 800-fold the tested concentration and stored at -70 degrees C prior to their use. All drugs and investigational agents were tested over a range starting from a high concentration at or near the clinical Cmax and decreasing in half-log increments. If the clinical Cmax for an agent had not been determined, the highest concentration tested was 10 microM.
Cell Culture. All cells were maintained in an incubator at 37 degrees C and 5% CO2 with 95% humidity. The PDC lines were cultured according to standard operating procedures established by the NCI PDMR (https://pdmr.cancer.gov/sops/default.htm). Briefly, all PDCs were thawed and cultured in Matrigel-coated flasks prepared with a working solution of 1X Ham's F-12 nutrient mix, without supplementation (Invitrogen, Waltham, MA, cat. 11765054), 100 U/mL penicillin-streptomycin (Invitrogen, cat. 15140122), and 2.5% Matrigel (Corning Inc., Corning, NY, cat. 354248) for the first three passages. All PDCs were cultured in complete DMEM/F-12 media containing advanced DMEM/F-12 (Invitrogen, cat. 12634028), 4.9% defined fetal bovine serum, heat inactivated (HyClone Laboratories Inc., Logan, UT, cat. SH30070.03HI), 389 ng/mL hydrocortisone (Sigma-Aldrich, cat. H4001), 9.7 ng/mL human EGF recombinant protein (Invitrogen, cat. PHG0313), 23.4 microg/mL adenine (Sigma-Aldrich, cat. A2786), 97.3 U/mL penicillin-streptomycin (Invitrogen, cat. 15140122), 1.9 mM L-glutamine (Invitrogen, cat. 25030081), and 9.7 microM Y-27632 dihydrochloride (Tocris Bioscience, Bristol, United Kingdom, cat. 1254). The PDCs were cultured in complete DMEM/F12 media without 9.7 microM Y-27632 dihydrochloride for at least two passages prior to the screen. The established cell line HOP-62 was cultured in RPMI 1640 medium, HEPES (Invitrogen, cat. 22400105) with 10% defined fetal bovine serum (HyClone Laboratories Inc., cat. SH30070.03) and 2 mM L-glutamine (Invitrogen, cat. 25030081). The pooled donor HUVEC were cultured in endothelial cell growth medium 2 (PromoCell, Heidelberg, Germany, cat. C-22011) and the hMSC were cultured in mesenchymal stem cell growth medium 2 (PromoCell, cat. C-28009). For all experiments, HUVEC and hMSC were used at passages </=5, while the malignant cell lines were used at passages </=15. […]

Measured: viability, T/C
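Also: spheroids exposed to agents for seven days before reading; 100% = DMSO vehicle wells so lower means fewer viable cells.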

CC1OCC2(CCN(c3cnc(Sc4ccnc(N)c4Cl)c(N)n3)CC2)C1N (stereo unspecified)
inactive: compound 0.0316 µM 106% and 78.8% | compound 0.1 µM, compound 0.0316 µM 69.4% | compound 0.1 µM, compound 0.316 µM 62.5% | compound 0.1 µM, compound 1 µM 46.5% | compound 0.1 µM, compound 3.16 µM 39.7% | compound 0.1 µM, compound 10 µM 32.9% | compound 0.1 µM 80.8% and 71.2% and 69.3% | compound 0.316 µM, compound 0.0316 µM 56.7% | compound 0.316 µM, compound 0.1 µM 51.2% | compound 0.316 µM, compound 1 µM 43.4% | compound 0.316 µM, compound 3.16 µM 39.7% | compound 0.316 µM, compound 10 µM 31.8% | compound 0.316 µM 60.2% [middle of 4 runs] | compound 1 µM, compound 0.0316 µM 47.4% | compound 1 µM, compound 0.1 µM 48.3% | compound 1 µM, compound 0.316 µM 43.7% | compound 1 µM, compound 3.16 µM 37.2% | compound 1 µM, compound 10 µM 27.5% | compound 1 µM 52% and 43.9% and 42.7% | compound 3.16 µM, compound 0.0316 µM 31.5% | compound 3.16 µM, compound 0.1 µM 37.2% | compound 3.16 µM, compound 0.316 µM 31.4% | compound 3.16 µM, compound 1 µM 29.8% | compound 3.16 µM, compound 10 µM 25.4% | compound 3.16 µM 39.3% and 38.5% and 28.6% | compound 10 µM, compound 0.0316 µM 27.4% | compound 10 µM, compound 0.1 µM 30.7% | compound 10 µM, compound 0.316 µM 23.6% | compound 10 µM, compound 1 µM 25.8% | compound 10 µM, compound 3.16 µM 24.7% | compound 10 µM 31.1% and 33.4% and 22.2%
